No constants are given. Whether binding was seen depends on the method and setting. Some binding calls cover weakened binding; strength is not graded here.
Molecular target: biotinylated IL-3 (Homo sapiens (Human)) (UniProt P08700)
Test: flow cytometry, antibody dilutions preincubated with biotinylated IL-3, then basophils in EDTA blood

By UniProt entry, the sequences of proteins in these tests, tags left out. Where a name states a change or a piece, a line headed by the entry shows the natural chain unless it says otherwise.
UniProt P08700: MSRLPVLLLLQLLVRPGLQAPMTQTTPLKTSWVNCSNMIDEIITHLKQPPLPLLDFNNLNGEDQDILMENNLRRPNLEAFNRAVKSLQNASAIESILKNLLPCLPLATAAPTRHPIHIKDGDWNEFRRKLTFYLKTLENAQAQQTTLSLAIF

| Binder | binding |
| --- | --- |
| Chimeric P8C11 (antibody, V domains shown) VH: QVQLQQSGAEMVRPGVSVKIACKGSGFTFTDYALHWVKQSHAKSLEWIGLISTYYGDTTYNQRFKGKATMTVDKSSSTAYMELARLTSEDSAIYYCVITTVAGTDAMDYWGQGTSVTVSS VL: DIQMNQSPSSLSASLGDTITITCHASQNINVWLSWYQQKPGNIPKLLIYKASNLHTGVPSRFSGSGSGTGFTLTISSLQPEDIATYYCQQGYSYPYTFGGGTKLEIK | binds |
| GRT002-H16L2 (antibody, human IgG1, kappa, V domains shown, IgG1 of the G1m3 (heavy chain) and KM3 (light chain) allotype, lacks the C-terminal lysine; also called HC16 × LC2; humanized derivative of antibody P8C11) VH: QVQLVQSGAEVKKPGASVKVSCKGSGFTFTDYALHWVRQAPGQRLEWMGLISTYYGDTTYNQRFKGRVTMTVDKSTSTAYMELSSLRSEDTAVYYCVITTVAGTDAMDYWGQGTLVTVSS VL: DIQMTQSPSSLSASVGDRVTITCHASQNINVWLSWYQQKPGKAPKLLIYKASNLHTGVPSRFSGSGSGTDFTFTISSLQPEDIATYYCQQGYSYPYTFGGGTKLEIKR | binds |
